From article PMC9722908

Sequences of proteins named here, by UniProt entry; tags and fusion partners are left off. A change or cut given only in a name is not applied to a line headed by its entry.
UniProt P06803: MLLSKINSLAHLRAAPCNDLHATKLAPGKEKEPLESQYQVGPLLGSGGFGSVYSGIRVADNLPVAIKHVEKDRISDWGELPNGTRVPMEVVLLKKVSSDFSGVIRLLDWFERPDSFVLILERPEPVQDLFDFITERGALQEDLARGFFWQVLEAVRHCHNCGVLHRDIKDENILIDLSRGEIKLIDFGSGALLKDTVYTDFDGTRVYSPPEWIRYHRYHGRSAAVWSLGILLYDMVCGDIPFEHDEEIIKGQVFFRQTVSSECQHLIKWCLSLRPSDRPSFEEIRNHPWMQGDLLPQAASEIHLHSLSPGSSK

Molecular target: endogenous Pim1 of BMDMs (mouse (endogenous in BMDMs)) (UniProt P06803)
Assay: co-IP; endogenous proteins; BMDMs stimulated with LPS (100 ng ml^-1) for 1 h, immunoprecipitation with an anti-Pim1 antibody, immunoblot

Binder	binding
endogenous TRIF of BMDMs (protein, UniProt Q80UF7 1-732) MDNPGPSLRGAFGILGALERDRLTHLKHKLGSLCSGSQESKLLHAMVLLALGQDTEARVSLESLKMNTVAQLVAHQWADMETTEGPEEPPDLSWTVARLYHLLAEENLCPASTRDMAYQVALRDFASQGDHQLGQLQNEAWDRCSSDIKGDPSGFQPLHSHQGSLQPPSASPAVTRSQPRPIDTPDWSWGHTLHSTNSTASLASHLEISQSPTLAFLSSHHGTHGPSKLCNTPLDTQEPQLVPEGCQEPEEISWPPSVETSVSLGLPHEISVPEVSPEEASPILPDALAAPDTSVHCPIECTELSTNSRSPLTSTTESVGKQWPITSQRSPQVPVGDDSLQNTTSSSPPAQPPSLQASPKLPPSPLSSASSPSSYPAPPTSTSPVLDHSETSDQKFYNFVVIHARADEQVALRIREKLETLGVPDGATFCEEFQVPGRGELHCLQDAIDHSGFTILLLTASFDCSLSLHQINHALMNSLTQSGRQDCVIPLLPLECSQAQLSPDTTRLLHSIVWLDEHSPIFARKVANTFKTQKLQAQRVRWKKAQEARTLKEQSIQLEAERQNVAAISAAYTAYVHSYRAWQAEMNKLGVAFGKNLSLGTPTPSWPGCPQPIPSHPQGGTPVFPYSPQPPSFPQPPCFPQPPSFPQPPSFPLPPVSSPQSQSFPSASSPAPQTPGPQPLIIHHAQMVQLGVNNHMWGHTGAQSSDDKTECSENPCMGPLTDQGEPLLETPE	binds
endogenous IRF3 of murine macrophages (protein, UniProt P70671 1-419) METPKPRILPWLVSQLDLGQLEGVAWLDESRTRFRIPWKHGLRQDAQMADFGIFQAWAEASGAYTPGKDKPDVSTWKRNFRSALNRKEVLRLAADNSKDPYDPHKVYEFVTPGARDFVHLGASPDTNGKSSLPHSQENLPKLFDGLILGPLKDEGSSDLAIVSDPSQQLPSPNVNNFLNPAPQENPLKQLLAEEQWEFEVTAFYRGRQVFQQTLFCPGGLRLVGSTADMTLPWQPVTLPDPEGFLTDKLVKEYVGQVLKGLGNGLALWQAGQCLWAQRLGHSHAFWALGEELLPDSGRGPDGEVHKDKDGAVFDLRPFVADLIAFMEGSGHSPRYTLWFCMGEMWPQDQPWVKRLVMVKVVPTCLKELLEMAREGGASSLKTVDLHISNSQPISLTSDQYKAYLQDLVEDMDFQATGNI	binds

Results are given in words; binding and its absence hold for the method and conditions named. Binding seen in cells or lysates may run through a third protein. A result given as binding can be weak or reduced; the word gives no strength.
